Here are results for 2 molecules from article PMC5299403.

The chains behind the UniProt entries cited, without tags or fusion partners. Where a name states a change or a piece, a line headed by the entry shows the natural chain unless it says otherwise.
UniProt G5E8K5: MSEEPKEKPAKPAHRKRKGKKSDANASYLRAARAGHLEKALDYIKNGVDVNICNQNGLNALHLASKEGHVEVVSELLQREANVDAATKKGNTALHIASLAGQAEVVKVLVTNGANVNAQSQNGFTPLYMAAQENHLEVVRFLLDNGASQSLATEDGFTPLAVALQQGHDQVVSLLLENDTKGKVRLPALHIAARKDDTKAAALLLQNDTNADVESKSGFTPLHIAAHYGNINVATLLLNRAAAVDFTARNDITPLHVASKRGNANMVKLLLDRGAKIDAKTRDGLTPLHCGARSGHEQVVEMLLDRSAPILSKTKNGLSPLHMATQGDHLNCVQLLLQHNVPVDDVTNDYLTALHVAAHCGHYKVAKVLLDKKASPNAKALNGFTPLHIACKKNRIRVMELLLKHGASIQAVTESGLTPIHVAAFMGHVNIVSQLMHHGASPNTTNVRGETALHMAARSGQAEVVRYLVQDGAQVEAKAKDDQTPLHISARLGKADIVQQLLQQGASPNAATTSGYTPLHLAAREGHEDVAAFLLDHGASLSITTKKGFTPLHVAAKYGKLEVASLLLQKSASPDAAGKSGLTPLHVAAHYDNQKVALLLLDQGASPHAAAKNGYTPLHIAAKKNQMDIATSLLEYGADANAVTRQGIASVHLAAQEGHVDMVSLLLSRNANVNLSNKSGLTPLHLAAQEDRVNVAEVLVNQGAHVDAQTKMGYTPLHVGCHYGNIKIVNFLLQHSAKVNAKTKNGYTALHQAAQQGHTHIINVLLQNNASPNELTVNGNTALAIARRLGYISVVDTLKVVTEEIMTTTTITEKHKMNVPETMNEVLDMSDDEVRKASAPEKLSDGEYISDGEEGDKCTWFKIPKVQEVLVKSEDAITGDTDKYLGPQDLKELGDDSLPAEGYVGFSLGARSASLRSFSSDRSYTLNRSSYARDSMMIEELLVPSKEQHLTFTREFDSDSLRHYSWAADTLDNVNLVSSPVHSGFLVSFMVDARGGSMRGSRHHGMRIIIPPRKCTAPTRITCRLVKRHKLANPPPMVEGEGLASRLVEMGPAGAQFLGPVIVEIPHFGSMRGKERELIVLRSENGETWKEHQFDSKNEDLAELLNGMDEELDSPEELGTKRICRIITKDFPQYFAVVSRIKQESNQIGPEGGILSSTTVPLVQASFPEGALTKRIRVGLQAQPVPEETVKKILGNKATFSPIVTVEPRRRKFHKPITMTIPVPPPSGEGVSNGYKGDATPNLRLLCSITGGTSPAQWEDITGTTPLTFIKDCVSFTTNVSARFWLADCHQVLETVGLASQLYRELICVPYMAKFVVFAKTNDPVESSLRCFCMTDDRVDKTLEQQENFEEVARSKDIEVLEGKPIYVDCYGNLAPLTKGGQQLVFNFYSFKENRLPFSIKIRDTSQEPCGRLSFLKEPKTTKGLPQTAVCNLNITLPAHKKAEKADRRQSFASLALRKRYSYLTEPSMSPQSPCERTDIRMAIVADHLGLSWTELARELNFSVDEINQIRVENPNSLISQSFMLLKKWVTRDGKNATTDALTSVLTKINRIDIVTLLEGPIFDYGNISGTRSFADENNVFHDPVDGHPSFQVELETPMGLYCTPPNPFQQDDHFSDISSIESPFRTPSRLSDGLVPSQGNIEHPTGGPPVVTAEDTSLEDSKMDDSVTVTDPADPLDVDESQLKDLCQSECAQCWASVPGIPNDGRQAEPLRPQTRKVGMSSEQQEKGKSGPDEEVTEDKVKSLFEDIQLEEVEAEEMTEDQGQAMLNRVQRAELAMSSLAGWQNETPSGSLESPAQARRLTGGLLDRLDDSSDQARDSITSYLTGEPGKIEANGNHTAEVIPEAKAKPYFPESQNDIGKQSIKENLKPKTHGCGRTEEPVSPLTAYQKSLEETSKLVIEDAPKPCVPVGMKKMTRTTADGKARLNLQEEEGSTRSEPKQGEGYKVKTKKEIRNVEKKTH
UniProt P20357: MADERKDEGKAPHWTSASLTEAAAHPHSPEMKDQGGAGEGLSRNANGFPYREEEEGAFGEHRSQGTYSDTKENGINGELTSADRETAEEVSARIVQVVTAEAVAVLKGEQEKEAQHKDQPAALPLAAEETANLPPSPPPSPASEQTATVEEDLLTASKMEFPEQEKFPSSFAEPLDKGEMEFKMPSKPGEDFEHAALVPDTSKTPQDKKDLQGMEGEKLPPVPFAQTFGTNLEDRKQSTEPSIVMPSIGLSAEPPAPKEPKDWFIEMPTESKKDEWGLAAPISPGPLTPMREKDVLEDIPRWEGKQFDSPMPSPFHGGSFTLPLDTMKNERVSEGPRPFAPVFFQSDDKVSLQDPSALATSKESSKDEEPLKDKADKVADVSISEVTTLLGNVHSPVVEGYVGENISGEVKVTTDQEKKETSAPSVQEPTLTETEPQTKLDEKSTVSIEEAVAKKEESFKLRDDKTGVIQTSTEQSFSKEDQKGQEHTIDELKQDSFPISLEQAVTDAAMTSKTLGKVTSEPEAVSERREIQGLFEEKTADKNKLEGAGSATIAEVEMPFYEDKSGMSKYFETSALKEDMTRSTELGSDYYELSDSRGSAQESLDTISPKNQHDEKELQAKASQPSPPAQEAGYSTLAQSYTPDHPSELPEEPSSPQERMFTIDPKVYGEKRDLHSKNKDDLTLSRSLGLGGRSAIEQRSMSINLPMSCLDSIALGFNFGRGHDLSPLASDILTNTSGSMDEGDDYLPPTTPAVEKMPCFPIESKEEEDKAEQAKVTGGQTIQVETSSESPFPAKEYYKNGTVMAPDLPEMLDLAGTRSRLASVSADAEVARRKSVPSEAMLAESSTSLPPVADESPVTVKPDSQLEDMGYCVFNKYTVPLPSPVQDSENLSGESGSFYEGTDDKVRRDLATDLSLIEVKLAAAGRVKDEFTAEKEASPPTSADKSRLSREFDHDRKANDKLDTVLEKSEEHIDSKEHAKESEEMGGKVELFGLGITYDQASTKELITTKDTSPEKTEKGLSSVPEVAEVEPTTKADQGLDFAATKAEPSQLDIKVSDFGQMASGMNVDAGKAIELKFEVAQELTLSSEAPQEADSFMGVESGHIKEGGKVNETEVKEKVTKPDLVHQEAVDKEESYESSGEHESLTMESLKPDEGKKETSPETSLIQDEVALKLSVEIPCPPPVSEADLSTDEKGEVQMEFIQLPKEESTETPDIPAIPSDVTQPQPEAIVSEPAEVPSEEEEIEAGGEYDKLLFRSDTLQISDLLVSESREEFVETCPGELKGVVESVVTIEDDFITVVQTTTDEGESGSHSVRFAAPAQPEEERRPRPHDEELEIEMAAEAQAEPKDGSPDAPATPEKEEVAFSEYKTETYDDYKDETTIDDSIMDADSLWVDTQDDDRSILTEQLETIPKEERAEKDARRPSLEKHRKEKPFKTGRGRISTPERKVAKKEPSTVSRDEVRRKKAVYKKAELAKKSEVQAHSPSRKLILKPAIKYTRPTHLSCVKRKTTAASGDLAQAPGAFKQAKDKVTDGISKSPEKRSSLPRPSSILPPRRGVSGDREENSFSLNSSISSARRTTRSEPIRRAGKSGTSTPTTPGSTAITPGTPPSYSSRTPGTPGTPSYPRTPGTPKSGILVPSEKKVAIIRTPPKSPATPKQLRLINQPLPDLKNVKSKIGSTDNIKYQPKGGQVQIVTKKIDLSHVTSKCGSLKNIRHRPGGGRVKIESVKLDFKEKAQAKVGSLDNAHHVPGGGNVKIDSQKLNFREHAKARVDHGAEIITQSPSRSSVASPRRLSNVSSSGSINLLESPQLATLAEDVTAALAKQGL
UniProt O70511: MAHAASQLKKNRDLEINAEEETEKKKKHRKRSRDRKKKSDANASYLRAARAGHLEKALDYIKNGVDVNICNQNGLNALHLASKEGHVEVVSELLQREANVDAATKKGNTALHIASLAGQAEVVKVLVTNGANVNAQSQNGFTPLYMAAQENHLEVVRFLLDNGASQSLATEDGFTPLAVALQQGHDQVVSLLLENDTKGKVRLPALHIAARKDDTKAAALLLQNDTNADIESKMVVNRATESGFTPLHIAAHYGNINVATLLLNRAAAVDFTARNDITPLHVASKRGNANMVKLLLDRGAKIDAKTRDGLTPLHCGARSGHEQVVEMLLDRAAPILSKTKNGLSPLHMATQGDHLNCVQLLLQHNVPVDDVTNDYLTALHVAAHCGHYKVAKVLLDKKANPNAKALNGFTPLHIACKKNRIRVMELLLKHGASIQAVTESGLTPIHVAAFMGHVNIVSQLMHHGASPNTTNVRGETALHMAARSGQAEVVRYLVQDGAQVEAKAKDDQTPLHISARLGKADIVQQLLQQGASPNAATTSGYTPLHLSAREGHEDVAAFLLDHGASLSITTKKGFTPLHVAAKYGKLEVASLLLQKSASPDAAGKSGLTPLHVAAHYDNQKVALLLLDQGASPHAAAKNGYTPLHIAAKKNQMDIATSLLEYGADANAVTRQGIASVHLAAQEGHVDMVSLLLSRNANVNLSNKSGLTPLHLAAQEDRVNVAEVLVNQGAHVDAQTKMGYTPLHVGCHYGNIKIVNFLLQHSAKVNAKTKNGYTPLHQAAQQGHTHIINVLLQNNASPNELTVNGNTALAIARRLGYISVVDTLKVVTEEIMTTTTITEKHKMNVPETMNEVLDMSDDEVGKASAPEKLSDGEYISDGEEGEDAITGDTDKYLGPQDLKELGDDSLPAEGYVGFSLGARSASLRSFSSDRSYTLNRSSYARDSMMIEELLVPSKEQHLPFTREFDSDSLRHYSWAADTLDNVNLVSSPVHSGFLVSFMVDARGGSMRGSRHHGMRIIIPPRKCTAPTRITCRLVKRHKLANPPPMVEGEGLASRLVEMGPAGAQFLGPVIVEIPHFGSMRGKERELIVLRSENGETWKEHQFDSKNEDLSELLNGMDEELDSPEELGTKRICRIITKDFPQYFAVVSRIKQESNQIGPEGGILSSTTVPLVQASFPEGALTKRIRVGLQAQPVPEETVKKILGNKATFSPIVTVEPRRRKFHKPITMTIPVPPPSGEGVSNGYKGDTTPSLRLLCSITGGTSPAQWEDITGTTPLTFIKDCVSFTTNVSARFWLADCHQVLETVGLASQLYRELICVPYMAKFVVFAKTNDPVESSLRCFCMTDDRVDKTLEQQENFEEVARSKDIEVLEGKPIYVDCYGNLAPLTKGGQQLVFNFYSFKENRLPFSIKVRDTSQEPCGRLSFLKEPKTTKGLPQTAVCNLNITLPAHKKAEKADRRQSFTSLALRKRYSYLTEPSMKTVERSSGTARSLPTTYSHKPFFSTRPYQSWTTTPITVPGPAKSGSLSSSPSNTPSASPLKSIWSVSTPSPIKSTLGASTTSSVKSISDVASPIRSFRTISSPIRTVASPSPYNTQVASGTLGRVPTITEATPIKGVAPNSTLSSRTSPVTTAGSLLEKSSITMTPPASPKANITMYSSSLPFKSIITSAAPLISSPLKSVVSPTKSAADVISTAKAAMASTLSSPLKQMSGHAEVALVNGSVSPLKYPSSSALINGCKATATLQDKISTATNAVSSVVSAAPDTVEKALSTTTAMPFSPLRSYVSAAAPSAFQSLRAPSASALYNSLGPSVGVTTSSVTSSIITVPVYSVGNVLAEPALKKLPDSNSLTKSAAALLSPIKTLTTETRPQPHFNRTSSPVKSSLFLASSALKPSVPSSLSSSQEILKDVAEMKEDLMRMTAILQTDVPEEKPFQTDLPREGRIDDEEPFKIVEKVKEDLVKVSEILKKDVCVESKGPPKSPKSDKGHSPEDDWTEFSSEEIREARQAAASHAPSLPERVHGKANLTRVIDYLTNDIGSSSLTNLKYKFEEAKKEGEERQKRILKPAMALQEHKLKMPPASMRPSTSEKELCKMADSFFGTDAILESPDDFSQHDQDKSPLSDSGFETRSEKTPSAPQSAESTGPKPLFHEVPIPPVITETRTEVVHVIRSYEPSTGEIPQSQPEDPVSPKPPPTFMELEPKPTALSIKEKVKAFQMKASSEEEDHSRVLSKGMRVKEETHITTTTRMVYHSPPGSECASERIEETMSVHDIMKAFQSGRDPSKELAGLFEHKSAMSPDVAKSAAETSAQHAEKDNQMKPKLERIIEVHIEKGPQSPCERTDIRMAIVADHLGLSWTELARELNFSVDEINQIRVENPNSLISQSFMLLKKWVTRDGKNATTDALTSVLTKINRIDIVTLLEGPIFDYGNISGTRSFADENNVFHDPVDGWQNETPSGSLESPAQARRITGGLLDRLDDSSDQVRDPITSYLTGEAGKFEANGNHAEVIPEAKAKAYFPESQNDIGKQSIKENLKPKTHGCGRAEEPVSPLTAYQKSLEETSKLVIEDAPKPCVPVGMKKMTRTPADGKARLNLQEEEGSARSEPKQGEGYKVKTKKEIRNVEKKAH

In assay [1] the target is ankyrin-G (endogenous, mouse cortex) (mouse (endogenous in adult mouse cortex)) (UniProt G5E8K5). Kind of assay: proximity ligation; formaldehyde-fixed mature primary mouse cortical neurons, transfected or not with ankG-eGFP and IKKβ plasmids; mouse anti-ankyrin-G and rabbit anti-IKKα/β, Duolink; proximity about 40 nm.
Assay [2] addresses MAP2 (microtubule-associated protein-2) (mouse (endogenous in adult mouse cortex)) (UniProt P20357). Kind of assay: co-IP; adult mouse cortical lysates in Na-sucrose buffer with 1% IGEPAL CA-630, 250-500 ug lysate; IP with anti-ankyrin-G (clone 463, H-215, S.E. Lux) or, in reverse, anti-IKKα/β (H-470) on protein A/G-agarose; controls anti-IgG, anti-MAP2, anti-α-Tubulin; Western blot. A general note: A western blot detects proteins with antibodies after separation by electrophoresis.

For assay [3], the target named is ankyrin-G (endogenous, mouse cortex) (mouse (endogenous in adult mouse cortex)) (UniProt G5E8K5). The assay is described as above.
The target in assay [4] is ankyrinG-eGFP (ankyrinG::enhanced green fluorescent protein), 270 kDa variant (UniProt O70511). The assay can be described thus: proximity ligation; formaldehyde-fixed mature primary mouse cortical neurons, transfected or not with ankG-eGFP and IKKβ plasmids; mouse anti-ankyrin-G and rabbit anti-IKKα/β, Duolink; proximity about 40 nm.
Assay [5] has the same target. The assay can be described thus: co-IP; SH-SY5Y cells transfected for 2 days with ankG-eGFP or eGFP and IKKβ-FLAG vectors; lysis in Co-IP buffer (50 mM Tris-Cl pH 7.5, 15 mM EGTA, 100 mM NaCl, 0.1% Triton X-100); anti-GFP (B-2) on protein A/G-agarose or dynabeads protein-G; detection with anti-Flag.

No constants are given. Whether binding was seen depends on the method and setting. In cells and extracts the contact can be indirect. Some binding calls cover weakened binding; strength is not graded here. For some assays here: Where a sequence is shown, tags or fusion partners need not be part of it.

In the case of “IKKα/β (IKK-complex; pan-IKKα/β immunoreactivity) (from UniProt Q60680 1-745; O88351 1-757)”, the binding entry was “binds” in assay [1], “no binding” in assay [2] and “binds” in assay [3].

B1: IKKβ-Flag (Flag-tagged IKKβ) (enzyme, UniProt O14920 1-756)
chain: MSWSPSLTTQTCGAWEMKERLGTGGFGNVIRWHNQETGEQIAIKQCRQELSPRNRERWCLEIQIMRRLTHPNVVAARDVPEGMQNLAPNDLPLLAMEYCQGGDLRKYLNQFENCCGLREGAILTLLSDIASALRYLHENRIIHRDLKPENIVLQQGEQRLIHKIIDLGYAKELDQGSLCTSFVGTLQYLAPELLEQQKYTVTVDYWSFGTLAFECITGFRPFLPNWQPVQWHSKVRQKSEVDIVVSEDLNGTVKFSSSLPYPNNLNSVLAERLEKWLQLMLMWHPRQRGTDPTYGPNGCFKALDDILNLKLVHILNMVTGTIHTYPVTEDESLQSLKARIQQDTGIPEEDQELLQEAGLALIPDKPATQCISDGKLNEGHTLDMDLVFLFDNSKITYETQISPRPQPESVSCILQEPKRNLAFFQLRKVWGQVWHSIQTLKEDCNRLQQGQRAAMMNLLRNNSCLSKMKNSMASMSQQLKAKLDFFKTSIQIDLEKYSEQTEFGITSDKLLLAWREMEQAVELCGRENEVKLLVERMMALQTDIVDLQRSPMGRKQGGTLDDLEEQARELYRRLREKPRDQRTEGDSQEMVRLLLQAIQSFEKKVRVIYTQLSKTVVCKQKALELLPKVEEVVSLMNEDEKTVVRLQEKRQKELWNLLKIACSKVRGPVSGSPDSMNASRLSQPGQLMSQPSTASNSLPEPAKKSEELVAEAHNLCTLLENAIQDTVREQDQSFTALDWSWLQTEEEEHSCLEQAS
Turning to B1, the binding result in assay [4] and in assay [5] was “binds” each time.
